Results as given in patent US20170189504A1, “NOVEL PEPTIDES AND COMBINATION OF PEPTIDES FOR USE IN IMMUNOTHERAPY AGAINST VARIOUS CANCERS” (immatics biotechnologies GmbH, priority 2015, published 2017).

Experiments:
[1] = test system: source genes (mRNA); test: Expression profiling of source genes by in-house RNASeq of tumor and normal tissues (Table 18, FIG. 2); parameters: species or system human; key: very highly over-expressed in tumors compared to a panel of normal tissues (+++); highly over-expressed in tumors compared to a panel of normal tissues (++); over-expressed in tumors compared to a panel of normal tissues (+); settings: source gene of peptide; for Expression score GB: glioblastoma (N = 24) vs panel of normal tissues; for Expression score NSCLC: non-small cell lung cancer (N = 11) vs panel of normal tissues
[2] = test system: HLA-A*24; test: Identification and relative LC-MS quantitation of HLA-A*24-presented tumor-associated peptides on tissue samples (presentation profiles, Tables 14A, 14B, 16, FIG. 1); parameters: species or system human; key to Presentation score GC / Presentation score NSCLC / Presentation score PCA / Presentation score GB / Presentation score HCC / Presentation score RCC: specifically presented on tumors (++++); very highly over-presented on tumors compared to a panel of normal tissues (+++); highly over-presented on tumors compared to a panel of normal tissues (++); over-presented on tumors compared to a panel of normal tissues (+); settings: for Presentation score GC: gastric cancer (N = 44) vs panel of normal tissues (N = 70); for Presentation score GB: glioblastoma (N = 18) vs panel of normal tissues (N = 70); for Peptide Presentation on cancer entities: Table 14A, HLA-A*24-binding tumor-associated peptides, cancer entities on which the peptide was found presented
[3] = test system: source genes (mRNA); test: Gene and exon expression of source genes, TCGA tumor samples compared with normal tissue samples (Lonsdale, 2013) (Table 17); parameters: species or system human; settings: for Over-expression category of source gene (target coverage), BRCA: BRCA = Breast cancer (N = 1104), tumors more than 2-fold above highest 75% percentile of normal tissues; for Over-expression category of source gene (target coverage), COAD: COAD = Colon and rectal adenocarcinoma (N = 462); for Over-expression category of source gene (target coverage), ESCA: ESCA = Esophageal cancer (N = 185); for Over-expression category of source gene (target coverage), GBM: GBM = Glioblastoma multiforme (N = 169); for Over-expression category of source gene (target coverage), LGG: LGG = Lower grade glioma (N = 534); for Over-expression category of source gene (target coverage), LUAD: LUAD = Lung adenocarcinoma (N = 517); for Over-expression category of source gene (target coverage), LUSC: LUSC = Lung squamous cell carcinoma (N = 503); for Over-expression category of source gene (target coverage), OV: OV = Ovarian serous cystadenocarcinoma (N = 309); for Over-expression category of source gene (target coverage), PRAD: PRAD = Prostate adenocarcinoma (N = 498); for Over-expression category of source gene (target coverage), READ: READ = Colon and rectal adenocarcinoma (N = 167); for Over-expression category of source gene (target coverage), SKCM: SKCM = Skin cutaneous melanoma (N = 473); for Over-expression category of source gene (target coverage), STAD: STAD = Stomach adenocarcinoma (N = 415); for Over-expression category of source gene (target coverage), UCEC: UCEC = Uterine corpus endometrial carcinoma (N = 546); for Over-expression category of source gene (target coverage), CHOL: CHOL = Cholangiocarcinoma (N = 36); for Over-expression category of source gene (target coverage), KICH: KICH = Kidney chromophobe (N = 66)

Row | Substance | Expression score GB [1] | Expression score NSCLC [1] | Presentation score GC ([2]; HLA-A*24 peptides) | Presentation score GB ([2]; HLA-A*24 peptides) | Peptide Presentation on cancer entities [2] | Over-expression category of source gene (target coverage), BRCA [3] | Over-expression category of source gene (target coverage), COAD ([3]; same cutoff) | Over-expression category of source gene (target coverage), ESCA ([3]; same cutoff) | Over-expression category of source gene (target coverage), GBM ([3]; same cutoff) | Over-expression category of source gene (target coverage), LGG ([3]; same cutoff) | Over-expression category of source gene (target coverage), LUAD ([3]; same cutoff) | Over-expression category of source gene (target coverage), LUSC ([3]; same cutoff) | Over-expression category of source gene (target coverage), OV ([3]; same cutoff) | Over-expression category of source gene (target coverage), PRAD ([3]; same cutoff) | Over-expression category of source gene (target coverage), READ ([3]; same cutoff) | Over-expression category of source gene (target coverage), SKCM ([3]; same cutoff) | Over-expression category of source gene (target coverage), STAD ([3]; same cutoff) | Over-expression category of source gene (target coverage), UCEC ([3]; same cutoff) | Over-expression category of source gene (target coverage), CHOL ([3]; same cutoff) | Over-expression category of source gene (target coverage), KICH ([3]; same cutoff) | also measured
1 | 207: peptide found in HEATR5A (gene looked up) (AYVVFVSTL; listed as Homo sapiens) [compound 207] | + | + | +++ | +++ | GB, GC, NSCLC | C (>=5% of tumors above the cutoff, but <20%) | C (>=5% of tumors above the cutoff, but <20%) | B (>= 20% of tumors above the cutoff, but <50%) | A (>=50% of tumors above the cutoff) | B (>= 20% of tumors above the cutoff, but <50%) | C (>=5% of tumors above the cutoff, but <20%) | B (>= 20% of tumors above the cutoff, but <50%) | B (>= 20% of tumors above the cutoff, but <50%) | C (>=5% of tumors above the cutoff, but <20%) | C (>=5% of tumors above the cutoff, but <20%) | C (>=5% of tumors above the cutoff, but <20%) | C (>=5% of tumors above the cutoff, but <20%) | C (>=5% of tumors above the cutoff, but <20%) |  |  | 
2 | 208: peptide found in CALCA (gene looked up) (TYTQDFNKF; listed as Homo sapiens) [compound 208] |  |  |  |  | NSCLC, HCC |  |  |  |  |  | C (>=5% of tumors above the cutoff, but <20%) |  |  |  |  |  |  |  | C (>=5% of tumors above the cutoff, but <20%) | B (>= 20% of tumors above the cutoff, but <50%) | Expression score HCC ([1]; hepatocellular carcinoma (N = 15) vs panel of normal tissues): +++; Expression score PC ([1]; pancreatic cancer (N = 26) vs panel of normal tissues): +++; Expression score SCLC ([1]; small cell lung cancer (N = 10) vs panel of normal tissues): +++; Presentation score HCC ([2]; HLA-A*24 peptides, hepatocellular carcinoma (N = 15) vs panel of normal tissues (N = 70)): +; Presentation score NSCLC ([2]; HLA-A*24 peptides, non-small cell lung cancer (N = 91) vs panel of normal tissues (N = 70)): +++
3 | 210: peptide found in MDM2 (gene looked up) (IYTMIYRNL; listed as Homo sapiens) [compound 210] | ++ | + | + | +++ | GB, GC, NSCLC | A (>=50% of tumors above the cutoff) | C (>=5% of tumors above the cutoff, but <20%) | A (>=50% of tumors above the cutoff) | B (>= 20% of tumors above the cutoff, but <50%) | C (>=5% of tumors above the cutoff, but <20%) | B (>= 20% of tumors above the cutoff, but <50%) | B (>= 20% of tumors above the cutoff, but <50%) | C (>=5% of tumors above the cutoff, but <20%) | C (>=5% of tumors above the cutoff, but <20%) | C (>=5% of tumors above the cutoff, but <20%) | B (>= 20% of tumors above the cutoff, but <50%) | A (>=50% of tumors above the cutoff) | B (>= 20% of tumors above the cutoff, but <50%) | B (>= 20% of tumors above the cutoff, but <50%) | C (>=5% of tumors above the cutoff, but <20%) | Expression score BRCA ([1]; BRCA tumors vs panel of normal tissues): +; Expression score AML ([1]; acute myeloid leukemia (N = 11) vs panel of normal tissues): +; Expression score OSCAR ([1]; esophageal cancer incl. gastric-esophageal junction (N = 11) vs panel of normal tissues): +; Expression score GBC_CCC ([1]; gallbladder adenocarcinoma and cholangiocarcinoma (N = 3) vs panel of normal tissues): +++; Expression score NHL ([1]; non-Hodgkin lymphoma (N = 10) vs panel of normal tissues): +; Expression score RCC ([1]; renal cell carcinoma (N = 10) vs panel of normal tissues): +; Expression score UBC ([1]; urinary bladder cancer (N = 10) vs panel of normal tissues): +; Expression score UEC ([1]; uterine cancer (N = 10) vs panel of normal tissues): +; Over-expression category of source gene (target coverage), BLCA ([3]; BLCA = Bladder urothelial carcinoma (N = 408), same cutoff): B (>= 20% of tumors above the cutoff, but <50%); Over-expression category of source gene (target coverage), DLBC ([3]; DLBC = Lymphoid neoplasm diffuse large B-cell lymphoma (N = 48), same cutoff): C (>=5% of tumors above the cutoff, but <20%); Over-expression category of source gene (target coverage), KIRC ([3]; KIRC = Clear cell kidney carcinoma (N = 534), same cutoff): A (>=50% of tumors above the cutoff); Over-expression category of source gene (target coverage), KIRP ([3]; KIRP = Papillary kidney carcinoma (N = 291), same cutoff): B (>= 20% of tumors above the cutoff, but <50%); Over-expression category of source gene (target coverage), LAML ([3]; LAML = Acute Myeloid Leukemia (N = 173), same cutoff): A (>=50% of tumors above the cutoff); Over-expression category of source gene (target coverage), LIHC ([3]; LIHC = Liver hepatocellular carcinoma (N = 374), same cutoff): C (>=5% of tumors above the cutoff, but <20%); Over-expression category of source gene (target coverage), PAAD ([3]; PAAD = Pancreatic ductal adenocarcinoma (N = 179), same cutoff): C (>=5% of tumors above the cutoff, but <20%)

For some assays here: Expression grades refer to the transcript from which the peptide derives; gene names, where given, were looked up from the sequence.
